In article PMC6449355, “A TetR-family transcription factor regulates fatty acid metabolism in the archaeal model organism Sulfolobus acidocaldarius” (Nature Communications, 2019):
Where a chain is given by its changes, count along the chain named. A weaker result is weaker than the reference pair of the same experiment. Protein sequences can lack the tags named with them. For some assays here: For at least one entry, the source does not settle the construct or the ends of the probe. For some assays here: At least one verdict rests on a figure or table, not on a statement of the authors.

How the values were obtained:
[1] = biological target: T1, FadRSa N37A (Sulfolobus acidocaldarius) (UniProt Q4J9S1); assay: EMSA; settings: diminished cooperativity of B2 formation; EMSA/DNase I: 20 mM Tris-HCl pH 8.0, 1 mM MgCl2, 0.1 mM DTT, 12.5% glycerol, 50 mM NaCl, 0.4 mM EDTA, 37 C; recombinant protein; residues 1-196; protein details: C-terminal His; label: 32P 5' end
T1 sequence (looked up): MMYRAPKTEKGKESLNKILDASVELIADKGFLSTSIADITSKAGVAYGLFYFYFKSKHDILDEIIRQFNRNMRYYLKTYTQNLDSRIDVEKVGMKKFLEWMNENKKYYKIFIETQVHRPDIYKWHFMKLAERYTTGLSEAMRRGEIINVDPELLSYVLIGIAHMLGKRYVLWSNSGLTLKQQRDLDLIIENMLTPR

[2] = biological target: T2, FadRSa (Sulfolobus acidocaldarius) (UniProt Q4J9S1); assay: EMSA; settings: EMSA/DNase I: 20 mM Tris-HCl pH 8.0, 1 mM MgCl2, 0.1 mM DTT, 12.5% glycerol, 50 mM NaCl, 0.4 mM EDTA, 37 C, recombinant protein, residues 1-196, label: 32P 5' end, probe letters rebuilt from the primers and the genome
T2 sequence (looked up): T1 sequence (looked up) with A37N

ACTACATAGTCAGTTGATTCTAATGTCAACTTTATAAAGTGGTGT (double strand) [mutated Saci_1123 operator 45-bp]
binding result [1]: binds more weakly

ACTTCCTATAAAGGCACCACCTACACTTCTTCCTATTCTAAATGGTATGGACAAAAATAATACTCCTGTCGCAATAAACACAGCCACGTATTGATATACTATTTTAGAGACAGCTATAAGCGTTGAAGTAAATGTTAGTGCAGAAGTGATTACAGTTAGAAGAGCACCAAATGGTACTACTTGAATTAAAGCTGAAACTTCAGGTACTGCATTACTGGCAGTTAATATTGTTTTAACCATTAGATAGAGAGATTGTTCTATGTATAGAATATTGTTTAACCAACTAAAATAGCCGTCCCAGGTAACACCGAGAAGAGAGAGTAATTCCCCAAGGAACAATAGAACACCTAAATATATAGAATTCCATACAACTACGTAAATTGAGTCAGTAATCAGTCTCGGTGCCCATTTTTTTACACCGTATACAGGTACTGGTAATGCGTAAATTGCAGCACCAATAAAATAAGTCAATGACGCTAATAACTGTGAATAAAATAAAAGTTGAAAAGGATTTAGCATTCATGAC (double strand) [Saci_0568 peak fragment]
binding result ([2]; intermediate affinity (++)): binds more weakly

CCAACTACAGGTCTTAAATACAACATAAATGTCAGTAGTAATGGAAAGGGATTCATATATTACTCTAAACCTGAGAAATTTATAAAACTAGCTTAATATTTGAGATATAATTCTTGATTTGAGTTCGTCCTCAACTTCATAAAACATTGTTTCCAAAATTACCACTCAAGACTTAGAGGAAGTAAGGGAATTATCATAATCGAAAGCCTCCTAAAGCCATTCTAAAGATACGCTACATTCATTTGATTTAATGAACTGACTGTAGAATCAACTATAAATAGCTTATCTCCTCTCTCATCTCCTTCCACAAAGACAGTCAAGACCACATTCAACCTCTTCACCTTCAAAATATTTATTAAATCGAACTTATGATCCTTAACTATCCTATAACCATAGCTTTGCAATAAAATCAACACTTCAGATCTATCGAATTCCTGCGTTACACTGGGTACAACCACCCTTGTACCTATCCTGGAGCCCTCTATTTCATTTAGCGCATCTACTATATTGCCTACTACCT (double strand) [Saci_0229 peak fragment]
binding result ([2]; intermediate affinity (++)): binds more weakly

CCTTCTTCATCAATATCGCTCAGTACGACTTTACCTCCCATTTCTGAGAACATCTCAGCTATGGCTTTTCCTATACCACTGGATGCTCCTAAAACAACAGCATTCATGCCTTTTACTGAAAAGAGCCTATCAATGTCCATTTTTGTTCAATTTATAATTTATGTTAGCCAAAATATATTTACACTAAGACTATTGAGTGAAGCAAACATCTCCTAGTTGTGCATTTGCTCTTATCCTACTGTTAAGTCATTTGGGATATACATTACTTCCTTATTGGATCCTCCTTGCCAATATAATATGTCTCTTTGGATATCAAAATACCTATGATCATAGCTATTGATGCAATGGTCAAGTTAATGAACCATGAGTTGAGGAGTCCTATGTAGGTAGAAATTGCGAATATTATACTAATGGAAAACCCTCCAACTATAGCACCTCCATTGTAAGTGAAACCAACACCAGTTGTCCTATATTTTTTGCTGAACTGTTCACTGAGGAA (double strand) [Saci_2130 peak fragment]
binding result ([2]; specific but low affinity (+)): binds more weakly

CTTCACTCCAAATCCTATTAGGAAAGCTGACACTGAACCGACCTTTTAACTACAATGATAGTCGACTCAAAAATCAAGTATAATATAGTCGAAATATGCCCTCTTGAATAAAACCATGAAATATAAATGAGTCTATTCTGATCTGATAAAGTTC (double strand) [Saci_1106 peak 1 fragment]
binding result ([2]; CoA, no strong abrogation): binds | binding result ([2]; acetyl-CoA, no strong abrogation): binds | binding result ([2]; free fatty acids, no strong abrogation): binds | binding result ([2]; long-chain acyl-CoA, dissociation increases with chain length): binds more weakly
